Experimental data as given in US20210163555A1.
Results are given in words; binding and its absence hold for the method and conditions named. Binding seen in cells or lysates may run through a third protein. Some binding calls cover weakened binding; strength is not graded here. One block for each substance: values may come before it.

Chains of the proteins cited; added tags and fusions are not shown. Lines headed by an entry give the natural chain unless they say otherwise; changes in a name come on top. A line that says so, or that is headed by a name, gives the form on record, which may keep a tag or linker. Residues count along the entry.
UniProt O88653: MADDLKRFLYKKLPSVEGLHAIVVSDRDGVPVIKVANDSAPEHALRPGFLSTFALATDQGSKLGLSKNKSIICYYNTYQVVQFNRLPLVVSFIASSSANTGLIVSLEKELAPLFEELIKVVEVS
UniProt Q9JHS3: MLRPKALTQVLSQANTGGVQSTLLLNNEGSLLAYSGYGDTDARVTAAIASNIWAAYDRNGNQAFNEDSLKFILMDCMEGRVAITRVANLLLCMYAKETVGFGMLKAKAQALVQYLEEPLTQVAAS
UniProt Q80X95: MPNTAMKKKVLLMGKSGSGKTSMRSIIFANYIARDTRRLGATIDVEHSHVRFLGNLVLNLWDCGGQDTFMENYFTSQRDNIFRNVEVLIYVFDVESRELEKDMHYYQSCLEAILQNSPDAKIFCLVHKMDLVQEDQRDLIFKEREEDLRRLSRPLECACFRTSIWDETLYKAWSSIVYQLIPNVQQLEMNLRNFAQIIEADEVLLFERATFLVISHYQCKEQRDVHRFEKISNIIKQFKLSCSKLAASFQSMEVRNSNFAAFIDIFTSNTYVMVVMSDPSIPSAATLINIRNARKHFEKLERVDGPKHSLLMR
HA-tagged wild-type Ube3a (Q05086, residues 11-875): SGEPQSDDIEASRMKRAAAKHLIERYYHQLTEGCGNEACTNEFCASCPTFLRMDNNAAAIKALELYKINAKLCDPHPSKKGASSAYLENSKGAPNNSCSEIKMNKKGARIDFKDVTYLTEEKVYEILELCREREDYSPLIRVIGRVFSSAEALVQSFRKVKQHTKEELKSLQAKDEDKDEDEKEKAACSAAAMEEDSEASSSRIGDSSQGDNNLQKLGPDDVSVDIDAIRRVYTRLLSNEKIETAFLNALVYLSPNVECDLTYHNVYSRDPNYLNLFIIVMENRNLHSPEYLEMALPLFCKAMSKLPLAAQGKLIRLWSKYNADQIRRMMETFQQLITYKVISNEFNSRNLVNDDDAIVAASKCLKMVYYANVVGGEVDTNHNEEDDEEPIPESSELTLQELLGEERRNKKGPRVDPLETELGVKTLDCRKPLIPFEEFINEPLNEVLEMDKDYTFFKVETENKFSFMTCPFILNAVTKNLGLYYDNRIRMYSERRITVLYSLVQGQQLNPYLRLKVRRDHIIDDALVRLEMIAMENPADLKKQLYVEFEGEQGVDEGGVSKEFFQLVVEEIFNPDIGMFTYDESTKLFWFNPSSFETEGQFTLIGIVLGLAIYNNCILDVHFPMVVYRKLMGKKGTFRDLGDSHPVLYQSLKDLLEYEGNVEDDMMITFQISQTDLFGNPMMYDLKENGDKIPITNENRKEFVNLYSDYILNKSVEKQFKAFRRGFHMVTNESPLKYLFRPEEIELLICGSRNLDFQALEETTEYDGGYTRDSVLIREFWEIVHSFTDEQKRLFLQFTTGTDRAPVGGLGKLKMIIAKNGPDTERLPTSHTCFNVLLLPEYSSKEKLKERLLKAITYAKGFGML
HA-tagged Ube3a-C833A (Q05086, form named): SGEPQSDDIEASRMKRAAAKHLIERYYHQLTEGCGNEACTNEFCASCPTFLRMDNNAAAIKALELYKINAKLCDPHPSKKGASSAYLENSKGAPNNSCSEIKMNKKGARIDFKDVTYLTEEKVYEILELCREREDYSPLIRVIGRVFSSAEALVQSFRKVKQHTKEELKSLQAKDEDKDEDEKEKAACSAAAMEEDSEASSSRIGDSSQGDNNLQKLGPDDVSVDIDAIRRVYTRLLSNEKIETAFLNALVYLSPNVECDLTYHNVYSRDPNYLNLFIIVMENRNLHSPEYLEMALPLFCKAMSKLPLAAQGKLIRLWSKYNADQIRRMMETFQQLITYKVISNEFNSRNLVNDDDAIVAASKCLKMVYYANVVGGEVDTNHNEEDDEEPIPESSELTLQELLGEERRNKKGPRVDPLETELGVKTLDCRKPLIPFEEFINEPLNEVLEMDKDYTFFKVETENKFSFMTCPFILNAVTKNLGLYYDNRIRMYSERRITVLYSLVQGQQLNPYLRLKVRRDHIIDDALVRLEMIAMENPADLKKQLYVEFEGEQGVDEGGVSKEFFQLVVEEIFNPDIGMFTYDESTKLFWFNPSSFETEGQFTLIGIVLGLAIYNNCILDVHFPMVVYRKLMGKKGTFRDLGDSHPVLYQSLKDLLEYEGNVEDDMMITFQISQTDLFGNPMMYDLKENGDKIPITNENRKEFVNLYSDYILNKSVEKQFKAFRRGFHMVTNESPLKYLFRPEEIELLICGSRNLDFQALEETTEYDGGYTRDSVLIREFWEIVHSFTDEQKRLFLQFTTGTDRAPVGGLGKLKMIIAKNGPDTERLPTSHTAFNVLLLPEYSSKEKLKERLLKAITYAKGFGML
UniProt Q99K70, residues 2-398: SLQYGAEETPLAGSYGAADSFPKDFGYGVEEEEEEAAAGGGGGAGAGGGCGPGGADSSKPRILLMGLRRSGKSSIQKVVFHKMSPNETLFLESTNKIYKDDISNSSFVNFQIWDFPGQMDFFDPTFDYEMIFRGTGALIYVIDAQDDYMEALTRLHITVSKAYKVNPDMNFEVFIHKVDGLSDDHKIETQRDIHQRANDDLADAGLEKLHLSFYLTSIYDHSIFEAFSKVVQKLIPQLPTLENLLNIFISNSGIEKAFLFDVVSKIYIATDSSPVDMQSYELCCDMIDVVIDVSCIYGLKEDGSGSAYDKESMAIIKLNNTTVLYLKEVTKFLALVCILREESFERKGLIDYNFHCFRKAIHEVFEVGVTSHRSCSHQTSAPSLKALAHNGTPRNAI
UniProt Q9CQ22, residues 2-161: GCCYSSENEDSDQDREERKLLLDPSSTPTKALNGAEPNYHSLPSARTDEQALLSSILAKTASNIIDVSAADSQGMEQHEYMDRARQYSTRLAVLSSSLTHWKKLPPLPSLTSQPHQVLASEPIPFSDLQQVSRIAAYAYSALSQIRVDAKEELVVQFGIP
UniProt Q5R766: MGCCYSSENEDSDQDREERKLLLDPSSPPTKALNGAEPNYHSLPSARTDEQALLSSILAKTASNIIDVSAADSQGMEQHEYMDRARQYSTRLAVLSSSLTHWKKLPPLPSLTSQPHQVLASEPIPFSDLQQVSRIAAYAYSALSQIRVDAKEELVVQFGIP

What was measured:
[1] = molecular target: T1, Ube3a (endogenous, mouse hippocampal neurons) (mouse) (UniProt O08759); experiment: co-immunoprecipitation with anti-p18, cultured hippocampal neurons
T1 sequence (looked up): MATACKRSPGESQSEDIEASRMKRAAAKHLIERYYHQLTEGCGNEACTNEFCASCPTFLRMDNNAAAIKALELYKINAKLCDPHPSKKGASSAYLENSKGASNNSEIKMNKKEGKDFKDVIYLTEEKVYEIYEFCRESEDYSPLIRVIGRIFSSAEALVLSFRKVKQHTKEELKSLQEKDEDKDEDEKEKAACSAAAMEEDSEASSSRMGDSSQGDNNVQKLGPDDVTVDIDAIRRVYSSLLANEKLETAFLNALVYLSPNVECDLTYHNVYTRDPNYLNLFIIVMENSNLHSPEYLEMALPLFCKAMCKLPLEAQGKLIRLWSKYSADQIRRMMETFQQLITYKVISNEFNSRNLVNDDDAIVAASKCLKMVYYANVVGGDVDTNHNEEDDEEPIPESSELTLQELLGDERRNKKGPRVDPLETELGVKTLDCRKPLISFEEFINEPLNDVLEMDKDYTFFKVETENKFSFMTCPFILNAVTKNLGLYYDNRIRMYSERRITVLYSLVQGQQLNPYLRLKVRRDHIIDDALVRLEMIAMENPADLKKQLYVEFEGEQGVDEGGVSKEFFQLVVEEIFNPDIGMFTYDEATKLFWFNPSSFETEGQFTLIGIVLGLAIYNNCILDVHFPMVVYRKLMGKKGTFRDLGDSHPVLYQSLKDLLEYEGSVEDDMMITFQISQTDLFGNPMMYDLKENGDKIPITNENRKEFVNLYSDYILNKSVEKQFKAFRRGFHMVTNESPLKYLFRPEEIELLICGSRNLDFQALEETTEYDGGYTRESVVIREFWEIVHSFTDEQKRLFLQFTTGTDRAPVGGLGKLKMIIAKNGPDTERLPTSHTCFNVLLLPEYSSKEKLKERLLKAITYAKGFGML

[2] = molecular target: T1, Ube3a (endogenous, mouse hippocampal neurons) (mouse); experiment: co-immunoprecipitation with anti-p18, cultured hippocampal neurons (FIG. 3B)
[3] = molecular target: MP1 (endogenous, mouse) (mouse) (UniProt O88653); experiment: co-immunoprecipitation with anti-p18, lysates of cultured hippocampal neurons
[4] = molecular target: p14 (endogenous, mouse) (mouse) (UniProt Q9JHS3); experiment: as above
[5] = molecular target: RagA (endogenous, mouse hippocampus) (mouse) (UniProt Q80X95); experiment: co-immunoprecipitation with anti-RagA, hippocampal homogenates of WT and AS mice
[6] = molecular target: MP1 (endogenous, mouse) (mouse) (UniProt O88653); experiment: co-immunoprecipitation with anti-p18, lysates of cultured hippocampal neurons (FIG. 2)
[7] = molecular target: p14 (endogenous, mouse) (mouse) (UniProt Q9JHS3); experiment: as above
[8] = molecular target: RagA (endogenous, mouse hippocampus) (mouse) (UniProt Q80X95); experiment: co-immunoprecipitation with anti-RagA, hippocampal homogenates of WT and AS mice (FIG. 4G)
HA-tagged Ube3a-C833A = HA-tagged Ube3a-C833A (UniProt Q05086); experiment: co-immunoprecipitation with anti-Flag, transfected COS-1 cells
[9] = molecular target: HA-tagged wild-type Ube3a (UniProt Q05086); experiment: co-immunoprecipitation with anti-Flag, transfected COS-1 cells (FIG. 1C)
[10] = molecular target: HA-tagged wild-type Ube3a (UniProt Q05086); experiment: co-immunoprecipitation with anti-Flag, COS-1 cells transfected with Ube3a and Flag-p18
[11] = molecular target: RagC (endogenous, mouse hippocampus) (mouse) (UniProt Q99K70); experiment: co-immunoprecipitation with anti-RagA, mouse hippocampal lysates
[12] = molecular target: p18 (endogenous, mouse hippocampal neurons / hippocampus) (mouse) (UniProt Q9CQ22); experiment: as above
[13] = molecular target: RagC (endogenous, mouse hippocampus) (mouse) (UniProt Q99K70); experiment: co-immunoprecipitation with anti-RagA, lysates from mouse hippocampi (FIG. 2)
[14] = molecular target: p18 (endogenous, mouse hippocampal neurons / hippocampus) (mouse) (UniProt Q9CQ22); experiment: as above

- binding [1]: binds
- binding [2]: binds
- binding [3]: binds
- binding [4]: binds
- binding [5]: binds
- binding [6]: binds
- binding [7]: binds
- binding [8]: binds
Substance: p18 (endogenous, mouse hippocampal neurons / hippocampus) (from UniProt Q9CQ22 2-161)

- binding (HA-tagged Ube3a-C833A): binds
- binding [9]: binds
- binding [10]: binds
Substance: Flag-p18 (from UniProt Q5R766 1-161)

- binding [11]: binds
- binding [12]: binds
- binding [13]: binds
- binding [14]: binds
Substance: RagA (endogenous, mouse hippocampus) (from UniProt Q80X95 1-313) (enzyme)
